Experimental data from paper PMC3076448.

By UniProt entry, the sequences of proteins in these tests, tags left out.
UniProt P20226, whole entry: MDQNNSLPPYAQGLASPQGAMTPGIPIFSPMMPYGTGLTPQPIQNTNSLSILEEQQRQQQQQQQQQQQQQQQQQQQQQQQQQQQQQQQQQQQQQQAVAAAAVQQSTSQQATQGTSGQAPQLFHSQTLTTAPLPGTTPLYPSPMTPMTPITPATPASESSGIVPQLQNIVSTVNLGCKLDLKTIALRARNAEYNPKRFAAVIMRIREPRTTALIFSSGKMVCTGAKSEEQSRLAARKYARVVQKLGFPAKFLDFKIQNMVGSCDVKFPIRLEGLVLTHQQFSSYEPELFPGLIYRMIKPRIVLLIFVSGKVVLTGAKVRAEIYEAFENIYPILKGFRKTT

Key:
TBP (human) = TBP (human) (UniProt P20226); experiment: EMSA; conditions: no TFIIB, less intense band; AFM imaging buffers: A 10 mM Tris-HCl, 0.1 mM NiCl2, pH 7.9; B 10 mM Tris-HCl, 1 mM NiCl2, pH 7.9; recombinant protein; residues 1-339; probe letters rebuilt from the primers and the genome
TBP + TFIIB [1] = experiment: EMSA; conditions: AFM imaging buffers: A 10 mM Tris-HCl, 0.1 mM NiCl2, pH 7.9; B 10 mM Tris-HCl, 1 mM NiCl2, pH 7.9; recombinant protein; probe letters rebuilt from the primers and the genome
TBP + TFIIB [2] = experiment: AFM; conditions: preferential binding at TATA box; AFM imaging buffers: A 10 mM Tris-HCl, 0.1 mM NiCl2, pH 7.9; B 10 mM Tris-HCl, 1 mM NiCl2, pH 7.9; recombinant protein; probe letters rebuilt from the primers and the genome

Measured: binding result

GGATCCTTCAGTTCGCCGCATCCTTCTCCATTATTTGAATATTGGAGGCTGCCTGACCAGAATCTTGTCAGGACTTTGCTCCTTCATCCCAGGTGGTCCCGGCTGACTCCTGAGGACGTTACAGCCCTGAGGGGAGGACTCAGCTTATGAAGTGCTGGGTGAGACCACTGCCAAGAAGTGCTTGCTCACCCTACCTTCAACGGCAGGGGAATCTCCCTCTCCTTTTATGGGCGTAGCTGAAGAAAGGATTCATAAATGAAGTTCAATCCTTCTCATCAACCCCAGCCCACACCTCCAGCAATTGAACTTGAAAAAAAAAACCTGGTTTGAAAAATTACCGCAAACTATATTGTCATCAAAAAAAAAAAAAAAAAAAAACACTTCCTATATTTGAGATGAGAGAAGAGAGTGCTAGGCAGTTTCCTGGCTGAACACGCCAGCCCAATACTTAAAGAGAGCAACTCCTGACTCCGATAGAGACTGGATGGACCCACAAGGGTGACAGCCCAGGCGGACCGATCTTCCCATCCCACATCCTCCGGCGCGATGCCAAAAAGAGGCTGAC (double strand) [563 bp IL2RA fragment]
binds: all assays above
